Drawing on the RNAGym collection of RNA variant scans (doi:10.1126/science.aae0568), this text covers yeast fitness for 113 variants.

To fix the notation:
B1: tRNA (parent)
chain: GUUCCGUUGGCGUAAUGGUAACGCGUCUCCCUCCUAAGGAGAAGACUGCGGGUUCGAGUCCCGUACGGAACG

This sample is rich in variants without activity.

This data set covers variants of B1. Nature of the data set: yeast fitness relative to wild type (ratio to wild type); higher = fitter; tRNA-Arg(CCU), competitive growth, 37 C, YPD. In a few lines:
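A pool of Saccharomyces cerevisiae strains, each with a tRNA-Arg(CCU) gene variant at the native genomic locus, was competed in YPD at 37°C for 24 hours across six parallel replicates. The variants had been chemically synthesised at a 3% per-site mutation rate over 69 sites, and gene amplicons before and after competition were read by 100-nucleotide paired-end sequencing. Darwinian fitness relative to wild type rested on changes in genotype frequencies. Genotypes required ≥ 100 starting reads, and estimates < 0.5 were set to 0.5.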
C5A C31A A37C C46U: the yeast fitness is at most 0.5.

On to C4U G23C, for which the yeast fitness worked out at 0.716.

Turning to U8C C33G G56C G67C, the yeast fitness was at most 0.5.

As for C30U C49G G50C A65U, the yeast fitness is at most 0.5.

Consider A65C A70C, for which the yeast fitness was 1.03.

For U2G G6A C61U, the yeast fitness is at most 0.5.

On to C11A C22G C31G, for which the yeast fitness is at most 0.5.

U7A G10A A40G G48A: the yeast fitness was at most 0.5.

A20G C27G U47G C62U A65U: the yeast fitness is at most 0.5.

As to A20G U35C A36G A42U, the yeast fitness is at most 0.5.

Consider U2A U3G C29G C30G C46G A70G, for which the yeast fitness was at most 0.5.

G6C C11U A21C A65G: the yeast fitness was at most 0.5.

U3C U16C C22U C30G C31G A37U: the yeast fitness was at most 0.5.

As to C24A G25A C49U C62A, the yeast fitness is at most 0.5.

For the variant G51A U53C C62U, the yeast fitness is at most 0.5.

As for U2G U13C A21G U35A C49U C55U A65G, the yeast fitness was at most 0.5.

Turning to U8G U16C A21U C22A U28G, the yeast fitness was at most 0.5.

Consider U13A A21G A42C C62U, for which the yeast fitness is at most 0.5.

Consider A21G C22A C49A G56C, for which the yeast fitness is at most 0.5.

Consider A37U A65G C66A, for which the yeast fitness was at most 0.5.

For the variant U2G U7C G18C A70U, the yeast fitness was at most 0.5.

Turning to A14U C24U U64C, the yeast fitness was at most 0.5.

For the variant U3C G18C C31G G68C, the yeast fitness is at most 0.5.

Turning to U7G G41C A69C, the yeast fitness is at most 0.5.

Regarding A36C G51A, the yeast fitness is at most 0.5.

C5U U19A G25C A43U: the yeast fitness worked out at 0.758.

As for C11U C30A C55G A57C, the yeast fitness was at most 0.5.

With U8A A14G C31A G39A A57G, the yeast fitness was at most 0.5.

Consider C31G A57U G58C, for which the yeast fitness was at most 0.5.

Take U26A C33A C34G: the yeast fitness amounted to 0.644.

Turning to A45C C49A A57U, the yeast fitness is at most 0.5.

For C11U G23A C61U, the yeast fitness is at most 0.5.

Consider U3G C31U, for which the yeast fitness is 1.

As for C27A C61G A69G, the yeast fitness is at most 0.5.

With G6A C11A C31U U59A G63A, the yeast fitness is at most 0.5.

Turning to C4A A45U U53G A65C, the yeast fitness was at most 0.5.

As for U7A A37G A40G A43G G52C G56A U59G, the yeast fitness is at most 0.5.

For A15G C60G C62U, the yeast fitness was at most 0.5.

As for C5G G9C A40C G58A, the yeast fitness is at most 0.5.

For the variant C4U C31U C55G U59A, the yeast fitness is 0.546.

Turning to C4U C11G C29A U54A G58A A70U, the yeast fitness was at most 0.5.

Turning to C33U C49G C60G C62G G63A, the yeast fitness is at most 0.5.

Take U8A C30U A36U C60U A65G: the yeast fitness was at most 0.5.

Take C11G C46G G52A: the yeast fitness was at most 0.5.

As for G52C C62U, the yeast fitness is 0.559.

In the case of G9C A15U A69U, the yeast fitness is at most 0.5.

For G38A C62G, the yeast fitness stood at 0.648.

With U19C A20C A21U C29U A40C C49G G63A, the yeast fitness is at most 0.5.

Turning to G6C U7A C27U C49U A70C, the yeast fitness was at most 0.5.

As to C5U G17C U26G G68C, the yeast fitness was at most 0.5.

For the variant G6A C11A A37G, the yeast fitness is at most 0.5.

Turning to C11G C61G C62U C66U, the yeast fitness was at most 0.5.

For the variant U32C A37U A40C C61G, the yeast fitness is at most 0.5.

Take C4U G39C C60G: the yeast fitness is at most 0.5.

G9C C24A C34U C55U: the yeast fitness is at most 0.5.

Take C11G G12C A20G A43G A45C C66U A69U: the yeast fitness was at most 0.5.

As for G6A C46G G52C C62G C66U, the yeast fitness is at most 0.5.

Turning to A40U A42C U53A, the yeast fitness was at most 0.5.

For the variant A36G A70G, the yeast fitness was 0.914.

With C22U U59A C61G, the yeast fitness came to 0.547.

Take C11A U59C C66U A70C: the yeast fitness was at most 0.5.

Turning to U8A C55U C62U, the yeast fitness is at most 0.5.

Take C4G G6C A65U: the yeast fitness is at most 0.5.

With C24G C46G C61U A65C, the yeast fitness was at most 0.5.

For the variant C24A A45C G48A, the yeast fitness was at most 0.5.

On to U3G G6A A14G G38C G41C A57C C62A, for which the yeast fitness is at most 0.5.

As for U2C U8G C31G A42C G56A, the yeast fitness is at most 0.5.

Consider G23A G58C C60U C61U C62G, for which the yeast fitness is at most 0.5.

For the variant G9C G18C C49G G63A A65U, the yeast fitness is at most 0.5.

U7A G9C C29U C30U C34G U53G: the yeast fitness was at most 0.5.

Consider U8G G38C G44C C61G, for which the yeast fitness is at most 0.5.

A20G G50A U59C: the yeast fitness amounted to 0.571.

On to C30G G56C, for which the yeast fitness was at most 0.5.

As for A37C G39C C66U, the yeast fitness was at most 0.5.

For the variant C24G A43G, the yeast fitness is 0.573.

Consider A14U A20G C24A C31U C33U A37U G48A A69C, for which the yeast fitness is at most 0.5.

Take C4U C11G C29A U54A A57U: the yeast fitness was at most 0.5.

For the variant A20C C31G G48A G50C C60G, the yeast fitness amounted to 0.722.

Regarding C5G C24U A43U C55U G68C, the yeast fitness is at most 0.5.

With C5G U16A G25A C46U G51C U64A, the yeast fitness is at most 0.5.

As to U19C A20C C31G G48A, the yeast fitness is at most 0.5.

Take A20G C29G C33A: the yeast fitness is at most 0.5.

Turning to C11U U13G U19A C22G G25A A69U, the yeast fitness was at most 0.5.

Turning to U7G G51A C55G G56C, the yeast fitness is at most 0.5.

For U2C G12A A15G C66U G68A, the yeast fitness was at most 0.5.

Consider A14U A65G C66G, for which the yeast fitness amounted to 0.788.

As for C29G U53A G68C, the yeast fitness was at most 0.5.

Turning to C4A U7A G18C, the yeast fitness is at most 0.5.

With U13A C30A C31U A43C, the yeast fitness turned out to be 0.942.

In the case of G10C C34G C55U, the yeast fitness is at most 0.5.

Consider A15U C34A G39C A40C U47C G56C C61G C62G G68C, for which the yeast fitness was at most 0.5.

As to C22G A37G C60A, the yeast fitness is at most 0.5.

As for A15G G52A C55U, the yeast fitness is at most 0.5.

For the variant A15U C31A C33G A43U, the yeast fitness is at most 0.5.

Regarding A15C C30A A42C, the yeast fitness was at most 0.5.

Turning to C5G A14C G50A C55G C62A, the yeast fitness is at most 0.5.

As to U2A A40U A70U, the yeast fitness is 0.696.

With C5U G17C A57G, the yeast fitness is at most 0.5.

On to C30U U47C U54A, for which the yeast fitness was at most 0.5.

Turning to C11U C30A A36G A65G, the yeast fitness is at most 0.5.

On to G23C C29G G63C C66G, for which the yeast fitness is at most 0.5.

As for C11U A21G A40C A42U C46U C49U G51A A65C, the yeast fitness was at most 0.5.

For the variant U2A C5U C66U, the yeast fitness came to 0.661.

As to U19A C22A G41A G56C C66A, the yeast fitness is at most 0.5.

Regarding G23A C49U C61A, the yeast fitness was at most 0.5.

With C27A C62G A65U, the yeast fitness was at most 0.5.

In the case of C33G A57U G68A A69U, the yeast fitness was at most 0.5.

On to A14G G23A C29G, for which the yeast fitness is at most 0.5.

For the variant C5G G23A C34G, the yeast fitness is at most 0.5.

C5U G44C C49G G52C U53A: the yeast fitness was at most 0.5.

In the case of C11A U59A, the yeast fitness worked out at 0.629.

Turning to C24A U47G G68A, the yeast fitness is at most 0.5.

With A15G G17A U26G C30U G52A, the yeast fitness was at most 0.5.
